Some peptides are written in HELM: one residue between dots, names in brackets for other building blocks, links after the first $.
Assay: peptide synthesis

Substance	conjugation yield (conjugation step)	final LC-MS purity (conjugation step, LC-MS (stated for geo75))	step yield (late stage modification step)
PEPTIDE1{R.G.D.[dY].K}|CHEM1{[JH139-COO-TEG-OCO]}$PEPTIDE1,PEPTIDE1,1:R1-5:R2|PEPTIDE1,CHEM1,5:R3-1:R2$$$V2.0	56%	greater than 98%	–
PEPTIDE1{R.G.D.[dY].K}|PEPTIDE2{[JH139-CONH-EDEA-NHCO].K}$PEPTIDE1,PEPTIDE1,1:R1-5:R2|PEPTIDE1,PEPTIDE2,5:R3-2:R2$$$V2.0	–	–	90%
PEPTIDE1{R.G.D.[dY].K}|CHEM1{[JH139-glutaryl]}$PEPTIDE1,PEPTIDE1,1:R1-5:R2|PEPTIDE1,CHEM1,5:R3-1:R2$$$V2.0	45%	–	–
PEPTIDE1{R.G.D.[dY].K}|CHEM1{[JH139-CONH-EDEA-NHCO]}$PEPTIDE1,PEPTIDE1,1:R1-5:R2|PEPTIDE1,CHEM1,5:R3-1:R2$$$V2.0	88%	–	–

Reference: article PMC9962512 (Pharmaceutics, 2023)
